Assay results reported in PMC7287882 (Molecules, 2020).

Test: peptide synthesis
Conditions: conjugation step, Urea-PAGE

Substance | final purity (method not given) [%]
ACCCCTAT–linker 1–[GRLRL]2–linker 2–TTAGCATTAA | 95.2
CTACCTGC–linker 1–[GRLRL]2–linker 2–AAGCACTTTG | 95.6
TATCTGC–linker 1–[GRLRL]2–linker 2–ATGCACCTTA | 95.6
TCAACATC–linker 1–[GRLRL]2–linker 2–GATAAGCTA | 96.5
